In article PMC7819943, “Rice protein-binding microarrays: a tool to detect cis-acting elements near promoter regions in rice”:
The other results are listed elsewhere or left out.

Target: T1, OsSMF1 (Oryza sativa, UniProt Q6ZLB0 1-436)
T1 sequence: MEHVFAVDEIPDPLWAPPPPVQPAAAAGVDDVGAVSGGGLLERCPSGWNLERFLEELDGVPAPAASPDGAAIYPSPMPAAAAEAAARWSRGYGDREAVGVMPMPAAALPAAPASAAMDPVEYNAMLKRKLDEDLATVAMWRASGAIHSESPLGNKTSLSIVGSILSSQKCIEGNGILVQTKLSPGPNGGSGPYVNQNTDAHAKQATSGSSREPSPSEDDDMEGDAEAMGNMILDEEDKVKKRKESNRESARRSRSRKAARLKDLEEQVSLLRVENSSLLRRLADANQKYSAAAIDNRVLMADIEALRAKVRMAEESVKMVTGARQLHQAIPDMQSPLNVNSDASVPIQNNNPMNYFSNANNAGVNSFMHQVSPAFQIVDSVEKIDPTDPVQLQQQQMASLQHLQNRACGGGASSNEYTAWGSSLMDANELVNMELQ
Test: protein-binding microarray (RPBM); PBS, 2% BSA, 51.3 ng/ul salmon testes DNA, 50 uM zinc acetate, 200 nM TF, 25 C, 1 h; high values mean tight binding
Conditions: protein: recombinant; tags: N-terminal polyhistidine and DsRed monomer fusion (pET32a); chain copies: 2; label: CyDye5-dUTP incorporated in the synthesized complementary strand; 3' TTTTT single-stranded linker to array surface; dsDNA, one strand shown
In short: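 A custom Agilent array was converted to double-stranded form by primer extension with Cy5-dUTP and blocked with 2% BSA. Protein at 200 nM in PBS with 2% BSA, salmon testes DNA and 50 µM zinc acetate was applied for 1 h at 25 °C, followed by washing. The proteins were polyhistidine–DsRed N-terminal fusions of transcription factors, expressed in E. coli BL21-CodonPlus and Ni–NTA-purified. The binding signal is per-feature fluorescence intensity (arbitrary units) from an Axon 4000B scanner.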

Sequence | binding signal
TTATTTGCACTGGTTTTGAAAATTGAGGAACACGTCATATCGGAGTCACCTAGTGCAG | 13500 fluorescence intensity (a.u.)
CCACCACCACCTCACCACGACACCACTCCCCATGTCTAATCGGAGTCACCTAGTGCAG | 4710 fluorescence intensity (a.u.)
GGTCACACACCATAAGGGCATGCATGTCAGCAGCTGGTCACGGAGTCACCTAGTGCAG | 5290 fluorescence intensity (a.u.)
TTATATTGCAGAGACTTCTCCTTCGCGAATACGTGGGACACGGAGTCACCTAGTGCAG | 4510 fluorescence intensity (a.u.)
TCTGATGTGGTGGCAGCCAATCCATTCTTTCCTAGTGGCACGGAGTCACCTAGTGCAG | 5000 fluorescence intensity (a.u.)
TCCTTGTGCGCCTGAGTATCCCTTGCTGCCAGATCACTTACGGAGTCACCTAGTGCAG | 4980 fluorescence intensity (a.u.)
CCACTGGAGCCACCTCATCACTGACCTCCCACCACCATTACGGAGTCACCTAGTGCAG | 7740 fluorescence intensity (a.u.)
TACAATAAATCCCATCCAATCCAAGGGACAATTTGAATCACGGAGTCACCTAGTGCAG | 5730 fluorescence intensity (a.u.)
TATGAAGTGCTGACTCGTAGTCGACGCCAGGGTAGCCTTCCGGAGTCACCTAGTGCAG | 6010 fluorescence intensity (a.u.)
CATACTGCCCTCTAACATGGATCACTAACATATAGGCCCACGGAGTCACCTAGTGCAG | 24100 fluorescence intensity (a.u.)
AATGTGTCCCGTATCCCGTAGCTAATTAATATGTTTTCACCGGAGTCACCTAGTGCAG | 3240 fluorescence intensity (a.u.)
GCGGCGTCCCGTCACGGCATATCGGTCCGAAATGGTGCGCCGGAGTCACCTAGTGCAG | 3450 fluorescence intensity (a.u.)
GGACCATTAACGATTTAATACACTGACACACACACACATACGGAGTCACCTAGTGCAG | 3210 fluorescence intensity (a.u.)
GCTACTCCTAGTACAGGTTAGACAAGAAACAGACCAAGAACGGAGTCACCTAGTGCAG | 3310 fluorescence intensity (a.u.)
TTACCCTCCGATCCGAATAAGCCCTAAGGCTAGTAGGCGACGGAGTCACCTAGTGCAG | 18400 fluorescence intensity (a.u.)
CGCCCAACCGGCCAACCCACCGACGCGGCAGGCAGCGAGTCGGAGTCACCTAGTGCAG | 3610 fluorescence intensity (a.u.)
AGGATTGAAAACCCACTCTTCCGCTTCTCCTCCCAATCTCCGGAGTCACCTAGTGCAG | 14100 fluorescence intensity (a.u.)
TCTAAGCTTTGAATTGCAGTGACATGAATATAGCTTTAGTCGGAGTCACCTAGTGCAG | 3440 fluorescence intensity (a.u.)
ATCTAAACGGCGACGTGGCAGCGGGTCGCGTGAGCGTGACCGGAGTCACCTAGTGCAG | 4270 fluorescence intensity (a.u.)
CCATTCTCCATGTACCCTCCCATACCATACCATACTCCTCCGGAGTCACCTAGTGCAG | 3620 fluorescence intensity (a.u.)
TCCTCGCGCCGCGCCAGCGCTGACGTAGCCGTAGGTCGCCCGGAGTCACCTAGTGCAG | 11700 fluorescence intensity (a.u.)
AGTAAAAGGAGAACTGAAGAAGAAGGCATCGCGGACGCCCCGGAGTCACCTAGTGCAG | 8600 fluorescence intensity (a.u.)
TCGGCTTCACTTGGAACAAATCGTCATCATCCTCGCCGCCCGGAGTCACCTAGTGCAG | 5550 fluorescence intensity (a.u.)
TCCATCAGTATCACGCGTTCGTCCTACGATTTCGTCATGACGGAGTCACCTAGTGCAG | 24800 fluorescence intensity (a.u.)
AAACAAATCGAGCTCCTTTGGTTAATTTGTACCACGTCAGCGGAGTCACCTAGTGCAG | 19200 fluorescence intensity (a.u.)
TCGTTGGATTAGCTCACTAGCCGTTGGGGACACGTGGCACCGGAGTCACCTAGTGCAG | 14300 fluorescence intensity (a.u.)
GCTATTGACTGTATCTAGTACTATTTCAAATTGTCAACGACGGAGTCACCTAGTGCAG | 3200 fluorescence intensity (a.u.)

Sequence | binding signal
TTCCCCACGATAAACACGTACGCGCGCGCCTACTCGCGGCCGGAGTCACCTAGTGCAG | 3950 fluorescence intensity (a.u.)
GACGATGGCGTCTGCAGCGTCCGCGGGTGGATCCGTTAGCCGGAGTCACCTAGTGCAG | 3860 fluorescence intensity (a.u.)
CGCACTGCGTCGCGCCACGCCGCGTGGGCCCGCCGCCGACCGGAGTCACCTAGTGCAG | 4500 fluorescence intensity (a.u.)
GTTGTTTTGTCCCATGCAGGCTGCAGGCTGACCTGATCAACGGAGTCACCTAGTGCAG | 3240 fluorescence intensity (a.u.)
AAAAGAGTCTAATCTATGCAGCAGCCGCATCAGCTATAGCCGGAGTCACCTAGTGCAG | 3350 fluorescence intensity (a.u.)
ATAAGTGGTAGTCAGTGATGATGGTCACCTTTGACGGGTCCGGAGTCACCTAGTGCAG | 4170 fluorescence intensity (a.u.)
AATAACCACGTATATATAACTTCTAACCCTAGTTAACAACCGGAGTCACCTAGTGCAG | 3310 fluorescence intensity (a.u.)
CCATCTCATTCAGTTTTATTCCGCGCGCCTCCTAAATCGCCGGAGTCACCTAGTGCAG | 15900 fluorescence intensity (a.u.)
GAACGGCGCCAGGACATGCTCCACGTCGTCGTTGATCTTTCGGAGTCACCTAGTGCAG | 6040 fluorescence intensity (a.u.)
AGGGGAAGTCAGTGAGGGCGAAGCACACGTGGCGCTCTCCCGGAGTCACCTAGTGCAG | 16600 fluorescence intensity (a.u.)
CGGATATACAAACACACATTTGAAGTATTAAACGTAGTCTCGGAGTCACCTAGTGCAG | 3400 fluorescence intensity (a.u.)
ACAGCCAAAATCTTTCGAAAGATGTATAGGTACTCGCAAACGGAGTCACCTAGTGCAG | 3710 fluorescence intensity (a.u.)
CTAACCTCTTGGTGCGTCCAATCCATCGTGTATCGGTTCCCGGAGTCACCTAGTGCAG | 4150 fluorescence intensity (a.u.)
ACAGTATCAATGATGTTGGCGTCATCCTTCTTGTCTACCGCGGAGTCACCTAGTGCAG | 6460 fluorescence intensity (a.u.)
CTTCTTCACCAAATCCATGGCGATCTTACACAAACCTGGACGGAGTCACCTAGTGCAG | 3220 fluorescence intensity (a.u.)
CCTAGCCCTCCTCCTACTCCTCTGCAATGGTAGATTGCGCCGGAGTCACCTAGTGCAG | 47700 fluorescence intensity (a.u.)
ACGTTGGCGCTGATACGTTATAGCTTAGCGCCAATGTCTACGGAGTCACCTAGTGCAG | 27700 fluorescence intensity (a.u.)
TTGCGAGAGAATGAGTCAGTCAGGATTGATCAGCAAATCACGGAGTCACCTAGTGCAG | 4750 fluorescence intensity (a.u.)
TTTTCTCCATAAGCCTAGTGACACGTGTCAGCATAATAAACGGAGTCACCTAGTGCAG | 13600 fluorescence intensity (a.u.)
ACATTGGTAGCTTGAACATAAATATATTGATTTTAGTTTGCGGAGTCACCTAGTGCAG | 5600 fluorescence intensity (a.u.)
TGTACTGATGCATTTGCTGGCCTCACACGTCTCCACCTGCCGGAGTCACCTAGTGCAG | 3480 fluorescence intensity (a.u.)
ATGTGTTCTACTATGTATGTATGTGAAAATGCAGTGAAGTCGGAGTCACCTAGTGCAG | 4050 fluorescence intensity (a.u.)
GTCGTTGCTGTATATCCACGACCACGTCAAAACTGATCCCCGGAGTCACCTAGTGCAG | 5180 fluorescence intensity (a.u.)
TGGTCGTGATGCGTCATGTGAACTGCTGACTACCTTCTTCCGGAGTCACCTAGTGCAG | 9930 fluorescence intensity (a.u.)
TCGTATGTGTCATTGAAGCCCCACATATCATTGTCACGTACGGAGTCACCTAGTGCAG | 4020 fluorescence intensity (a.u.)
TTAACCACAGTGCCGTTCTCTAGCCACCATCTCAGCAGCACGGAGTCACCTAGTGCAG | 3270 fluorescence intensity (a.u.)
ACTTTACTTTCCGATCTGATGCGTGTTACATACTTGGCATCGGAGTCACCTAGTGCAG | 3460 fluorescence intensity (a.u.)

Some of the entries so far, as tab-separated lines:
Sequence	binding signal
CCTAGCCCTCCTCCTACTCCTCTGCAATGGTAGATTGCGCCGGAGTCACCTAGTGCAG	47700 fluorescence intensity (a.u.)
ACGTTGGCGCTGATACGTTATAGCTTAGCGCCAATGTCTACGGAGTCACCTAGTGCAG	27700 fluorescence intensity (a.u.)
